According to PubChem BioAssay AID623959 (National Center for Advancing Translational Sciences (NCATS), 2012):
Out of some 1,400 compounds screened, fewer than 10 were called active. Roughly 8% stayed inconclusive and do not appear here. Calls come from the whole dose curve; as a rule, active = well fitted curve in the direction sought with a large enough effect; inconclusive = small, poorly fitted or top-dose-only effect, or another doubt; inactive = no such curve, though single readings can be large or run the other way. The list shows a part of the results.

By UniProt entry, the sequences of proteins in these tests, tags left out.
UniProt Q8NER1, whole entry, looked up: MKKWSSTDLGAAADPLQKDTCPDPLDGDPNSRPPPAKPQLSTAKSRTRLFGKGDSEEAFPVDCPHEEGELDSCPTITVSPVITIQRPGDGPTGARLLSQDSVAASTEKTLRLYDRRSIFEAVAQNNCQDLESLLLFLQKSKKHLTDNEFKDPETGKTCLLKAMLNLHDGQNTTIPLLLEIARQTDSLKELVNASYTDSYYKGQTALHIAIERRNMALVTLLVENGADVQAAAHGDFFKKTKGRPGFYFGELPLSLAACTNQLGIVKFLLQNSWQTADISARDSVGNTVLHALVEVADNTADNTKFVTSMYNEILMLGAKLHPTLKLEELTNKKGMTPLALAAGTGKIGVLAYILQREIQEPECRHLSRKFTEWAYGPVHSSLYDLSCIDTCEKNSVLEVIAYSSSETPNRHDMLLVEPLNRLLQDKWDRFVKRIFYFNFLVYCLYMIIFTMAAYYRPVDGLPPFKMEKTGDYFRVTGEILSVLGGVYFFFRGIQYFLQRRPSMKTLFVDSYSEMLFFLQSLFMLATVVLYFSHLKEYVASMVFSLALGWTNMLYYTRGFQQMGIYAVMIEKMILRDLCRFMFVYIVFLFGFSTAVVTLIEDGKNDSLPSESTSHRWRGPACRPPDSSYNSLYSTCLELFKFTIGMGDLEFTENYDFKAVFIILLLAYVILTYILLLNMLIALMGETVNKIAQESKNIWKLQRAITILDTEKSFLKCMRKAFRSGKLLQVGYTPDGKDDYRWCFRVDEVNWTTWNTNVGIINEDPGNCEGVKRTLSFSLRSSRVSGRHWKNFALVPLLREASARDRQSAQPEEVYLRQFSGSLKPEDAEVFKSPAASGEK

molecular target: Transient receptor potential cation channel subfamily V member 1 (Homo sapiens) (UniProt Q8NER1); experiment: qHTS Assay for Compounds that Act as Potentiators of the Vanilloid Receptor 1: Hit Validation; details: TRPV1-expressing cells, Fluo-8 calcium influx, capsaicin EC20; series mostly up to 42.1 µM; activity change, positive = potentiation: at the top concentration; for activity change, positive = potentiation: % of control where 0% means no effect
How it was run: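 Calcium influx via Fluo-8 fluorescence (480/520 nm) on FDSS: 10 s baseline, 3 min compound read, 2 min read after EC20 capsaicin. TRPV1-expressing cells plated 2000/well, grown overnight at 35.5 °C.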
Potency is the fitted concentration of half-maximal effect.

| SMILES | activity change, positive = potentiation | Potency |
| --- | --- | --- |
| Cc1cc(/C=C2\Cc3ccccc3C2=O)c(C)n1-c1ccccc1 | inactive: -38.9% | – |
| O=C(Nc1ncc([N+](=O)[O-])s1)C1CCN(S(=O)(=O)c2cnc[nH]2)CC1 | inactive: -3.47% | – |
| CC(C)(C)NC(=O)Cn1nnc(-c2ccccc2NC(=O)c2cnccn2)n1 | inactive: 6.2% | – |
| O=C(Nc1ccc(Cl)c(Cl)c1)C1=Cc2ccccc2OC1 | inactive: -38.5% | – |
| O=S(=O)(c1cc(Cl)ccc1Cl)N1CCN2CCCC2C1 (stereo not given) | inactive: -9.92% | – |
| Cc1ccc(N2C(=O)C3N=NN(CC(=O)N4N=C(c5ccccc5)CC4c4ccccc4)C3C2=O)cc1 (stereo not given) | inactive: -1.79% | – |
| Cc1[nH]c2ccc(-c3nnc(SCC(=O)c4ccc(F)cc4)o3)cc2c1C | inactive: 0.257% | – |
| COc1ccc(-c2cc(C)no2)cc1S(=O)(=O)NCC(C)c1ccccc1 (stereo not given) | inactive: 0.097% | – |
| COc1ccc(OC)c(-c2[nH]nc3c2C(c2ccco2)C(C#N)=C(N)O3)c1 (stereo not given) | inactive: 0.39% | – |
| CCN1/C(=C(\O)c2ccccc2)C(=O)c2ccccc2S1(=O)=O | inactive: -2.36% | – |
| C=C(C)C(=O)Nc1cccc(C2=NOC3(C2)C[C@H](C(N)=O)N(C(=O)c2ccccc2C(=O)c2ccccc2)C3)c1 (stereo not given in full) | inactive: -6.85% | – |
| Cc1c(Cl)ccc2sc(NC(=O)c3ccco3)nc12 | inactive: -36% | – |
| O=C(NCc1n[nH]c(=S)n1-c1cccc(Cl)c1)c1ccc(S(=O)(=O)N2CCCCC2)cc1 | inactive: 3.77% | – |
| CCC(C)NC(=O)C1CCC(=O)N1CCc1ccccc1 (stereo not given) | inactive: 1.19% | – |
| Cc1cc(C)n2nc(-c3ccccc3)c(-c3ccccc3)c2n1 | inactive: -1.83% | – |
| c1ccc(Cn2nnc3ccccc32)cc1 | inactive: -0.332% | – |
| Cc1cc(N2CCCC2)nc2ccc(NC(=S)NC(C)C)cc12 | inactive: 5.65% | – |
| NC(=O)C1CCN(c2nnnn2-c2ccccc2)CC1 | inactive: 2.02% | – |
| CN1CCN(C(CNS(=O)(=O)c2ccc([N+](=O)[O-])cc2)c2ccc(F)cc2)CC1 (stereo not given) | inactive: -2.94% | – |
| CC(=O)Nc1cccc(Nc2nc(-c3ccccc3F)nc3ccccc23)c1 | inactive: -39.1% | – |
| O=C(Nc1cccc([N+](=O)[O-])c1)N1CCN(c2ccccc2)CC1 | inactive: -38.2% | – |
| CSc1ccc(/C=N/N2CCN(C)CC2)cc1 | inactive: 0.176% | – |
| COc1ccccc1-c1cc2ccccc2[nH]1 | inactive: -5.83% | – |
| CC(=O)c1cccc(NC(=O)c2ccc3c(c2)CCCC3)c1 | inactive: -35.4% | – |
| COc1cccc(CNC(=O)CCn2ccc3cc(S(=O)(=O)N4CCCC4)ccc32)c1 | inactive: -36.9% | – |
| Cc1ccc(CN2C(=O)CCC2C(=O)NCCCN2CCCC(C)C2)cc1 (stereo not given) | inactive: -5.07% | – |
| Cc1ccc(/C=N/NC(=O)Cc2cccs2)o1 | inactive: -3.68% | – |
| CC(C)(C)c1ccc(NC(=O)NCc2ccco2)cc1 | inactive: -39% | – |

| SMILES | activity change, positive = potentiation | Potency |
| --- | --- | --- |
| Cn1c(=O)c2c(-c3ccccc3F)c3c(nc2n(C)c1=O)-c1ccccc1C3O (stereo not given) | inactive: -24.5% | – |
| CCOc1c(C(=O)CC)cc2c(C)cc(=O)oc2c1C | inactive: -1.15% | – |
| Cc1cc(C)nc(SCC(=O)OCC(=O)Nc2ccccc2)n1 | inactive: -4.38% | – |
| N#CC(C#N)=Cc1ccc(NC(=O)c2ccc(Br)cc2)cc1 | inactive: -6.2% | – |
| Brc1ccccc1C1Nc2cccc3cccc(c23)N1 | inactive: -10% | – |
| Cc1ccc(S(=O)(=O)Oc2ccccc2N2C(=O)C3C4CCC(C4)C3C2=O)cc1 (stereo not given) | inactive: 1.98% | – |
| CCOc1ccc(C(C)NC(=S)NCc2ccc(F)cc2)cc1 (stereo not given) | inactive: -32% | – |
| COc1ccc(NC(=O)CCCSc2nc(-c3ccco3)cc(C(F)(F)F)n2)cc1OC | inactive: -38.7% | – |
| COc1ccc(NC(=O)CSc2nn3c(=O)c(C)nnc3s2)cc1 | inactive: -8.35% | – |
| CCOC(=O)CNC(=O)N1CCc2ccc(NC(=O)c3ccccc3Cl)cc2C1 | inactive: -6.37% | – |
| Cn1nc(-c2ccccc2)c2cc([N+](=O)[O-])ccc21 | inactive: -1.55% | – |
| Cc1cccc2c1-c1sc(C(=O)N3CCCCC3)cc1CO2 | inactive: -36.2% | – |
| Cc1cc(NC(=O)c2cc(F)c(F)cc2Cl)no1 | inactive: -10.7% | – |
| CC(C)(C)c1ccc(S(=O)(=O)N2CC(C(=O)O)Oc3ccc(Cl)cc32)cc1 (stereo not given) | inactive: -3.16% | – |
| COCCNC(=O)c1cc(-c2ccccc2)n(CC2CC(c3ccc(OC)cc3)=NO2)n1 (stereo not given) | inactive: -3.84% | – |
| Cc1ccc(/C=C2\CCC3=C2OC(N)=C(C#N)C3c2ccc(C)cc2)cc1 (stereo not given) | – | active: 8.05 µM |
| COc1ccccc1CC(=O)Nc1c[nH]c(=O)[nH]c1=O | inactive: -4.86% | – |
| COc1ccccc1Nc1nc(N)nc(-c2oc3ccccc3c2C)n1 | inactive: -6.22% | – |
| CC1(C(=O)NCc2ccccc2)Oc2ccccc2NC1=O (stereo not given) | inactive: -9.01% | – |
| COc1ccccc1CNC(=O)CNCCc1ccc(OC)c(OC)c1 | inactive: -0.663% | – |
| O=C(Nc1ccc(F)cc1)c1ccc2ncsc2c1 | inactive: -36.9% | – |
| O=C(N/N=C/c1ccccc1)c1n[nH]c2c1CCCC2 | inactive: -30.5% | – |
| COc1ccc(C(=O)c2sc(Nc3ccc(NC(C)=O)cc3)nc2C)cc1 | inactive: 2.12% | – |
| O=C(NNC(=O)c1ccncc1)Nc1cccc(C(F)(F)F)c1 | inactive: 5.3% | – |
| c1cnc2c(OCc3nc4ccccc4[nH]3)cccc2c1 | inactive: -5.99% | – |
| CCC(C)Sc1ccc([C@H]2N[C@@](CC(C)C)(C(=O)OC)[C@H]3C(=O)N(CC)C(=O)[C@@H]23)cc1 (stereo not given in full) | inactive: -37.3% | – |
| CC(C)Oc1ccc(NC(=O)c2ccncc2)cc1 | inactive: -33.9% | – |

Another view of part of the listing above.
SMILES,"activity change, positive = potentiation",Potency
Cc1cc(C)nc(SCC(=O)OCC(=O)Nc2ccccc2)n1,inactive: -4.38%,–
Cc1cc(NC(=O)c2cc(F)c(F)cc2Cl)no1,inactive: -10.7%,–
Cc1ccc(/C=C2\CCC3=C2OC(N)=C(C#N)C3c2ccc(C)cc2)cc1 (stereo not given),–,active: 8.05 µM
